Results as given in patent US10874686B2, “Anthranilyl-adenosinemonosulfamate analogs and uses thereof” (Memorial Sloan-Kettering Cancer Center, priority 2015, dated 2020).
Some entries share one result that the patent states for a list of compounds. For at least one compound, name, drawing or mass did not settle the structure.

System: HHQ and PQS quinolone production in P. aeruginosa strain PA14
Experiment: Inhibition of HHQ and PQS quinolone production in P. aeruginosa strain PA14 (LC-MS/MS)
Type: cell-based, Pseudomonas aeruginosa
Conditions: dose and time course, FIG. 2A
Experimental: The production of PQS and HHQ by strain PA14 was performed in triplicate in 14-mL round bottom falcon tubes containing 3-mL cultures in LB medium. Tubes were incubated at 37° C. in an orbital shaker at 225 rpm. Cultures were inoculated with 15-hour culture in LB in order to obtain a starting OD600=0.05, with or without inhibitors added. For PQS and HHQ analysis, a 20 μl aliquot was taken at time points as indicated. Each sample was diluted with 180 μL of methanol containing the internal standard (100 μM of d^4-PQS or d^4-HHQ) and 2% acetic acid. The solution was then vertexed and centrifuged at 13,000 g for 5 minutes, and the supernatant was transferred to a 96-well plates for LC-MS/MS analysis. Bacterial growth was measured by recording OD600 at 20 h to provide the data in FIG. 7A.
Liquid chromatography tandem mass spectrometry (LC-MS/MS) was carried out on an Agilent Technologies 6410 triple quad LC-MS/MS system with autosampler in electrospray ionization (ESI) mode, with an Agilent Zorbax Eclipse XDB-C18 reverse phase column (50×4.6 mm, 5 μm) using a flow rate of 0.5 mL/minute and an isocratic mobile phase of 60% CH3CN in 0.1% aqueous formic acid over 5 minutes. Positive electrospray in MRM mode was employed to quantify PQS and HHQ, using the ion transitions HHQ 244 to 159, d^4-HHQ 248 to 163, PQS 260 to 175, and d^4-PQS 264 to 179; shown in Table E3. […]

Compound	concentration at which quinolone production is inhibited or delayed (as low as)
Nc1cccc(F)c1C(=O)O [6FABA, 6-Fluoroanthranilate, reference compound]	≤ 100 µM
Nc1ccccc1C(=O)NS(=O)(=O)NC[C@H]1O[C@@H](n2cnc3c(N)ncnc32)[C@H](O)[C@@H]1O [anthranilyl-AMSN, Anthranilyl-AMSN]	≤ 100 µM
